Results taken from PubChem BioAssay AID1671190 (National Center for Advancing Translational Sciences (NCATS), 2021).
About 6,100 (1.1%) of roughly 580,000 compounds were called active. Inconclusive means that the source gave no clear call. Such entries were picked first, then a sample of the others. The call rests on the fitted dose curve; in most records, active means well fitted inhibition curve with a large enough effect; inconclusive means small, poorly fitted or top-dose-only effect, or another doubt; inactive means no such curve, though single readings can be large or run the other way. Potencies of inconclusive entries are doubtful fits and often do not repeat.

Protein sequences, listed by entry. Tags and fused reporters are not part of them. Lines headed by an entry give the natural chain unless they say otherwise; changes in a name come on top.
UniProt P18054: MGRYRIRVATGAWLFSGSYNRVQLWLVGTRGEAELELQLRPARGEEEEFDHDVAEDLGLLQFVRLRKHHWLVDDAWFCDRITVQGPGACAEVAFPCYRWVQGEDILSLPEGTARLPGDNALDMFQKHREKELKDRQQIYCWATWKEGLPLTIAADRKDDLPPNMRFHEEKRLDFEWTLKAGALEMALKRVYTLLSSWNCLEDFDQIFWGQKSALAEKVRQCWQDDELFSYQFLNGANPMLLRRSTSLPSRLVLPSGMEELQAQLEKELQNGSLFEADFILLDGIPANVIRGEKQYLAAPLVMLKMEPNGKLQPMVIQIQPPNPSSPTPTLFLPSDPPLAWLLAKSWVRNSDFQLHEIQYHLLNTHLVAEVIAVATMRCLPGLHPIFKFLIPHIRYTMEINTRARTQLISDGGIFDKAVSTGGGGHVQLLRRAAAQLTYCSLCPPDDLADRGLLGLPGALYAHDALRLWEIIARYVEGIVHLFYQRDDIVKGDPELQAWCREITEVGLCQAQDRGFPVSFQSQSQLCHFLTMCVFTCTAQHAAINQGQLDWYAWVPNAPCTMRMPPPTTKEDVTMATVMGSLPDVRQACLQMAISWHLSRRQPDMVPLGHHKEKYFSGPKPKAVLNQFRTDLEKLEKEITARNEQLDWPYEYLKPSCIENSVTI

Each molecule was assayed against Polyunsaturated fatty acid lipoxygenase ALOX12 (Homo sapiens) (UniProt P18054) (assay: Primary qHTS assay for inhibitors of human arachidonate 12S-lipoxygenase (ALOX12): Round 2). Details: purified 12hLO, xylenol orange hydroperoxide absorbance; activity change, negative = inhibition: at 108 µM (top of the series) unless noted.
Procedure, shortened: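 Hydroperoxide product was detected by ferrous iron/xylenol orange as the 573 to 405 nm absorbance ratio. Arachidonic acid at 40 uM (final) was turned over for 30 min at room temperature by 150 nM human 12hLO, pH 7.0 Hepes buffer, after 15 min compound preincubation.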
On the % scale 0 is the no-effect control and ±100 the full control effect; potency means the concentration at half of the fitted maximal effect.

Compound | Potency | activity change, negative = inhibition
Cc1ccc(OCCCn2ccnc2)c(Br)c1 | inconclusive: 3.98 µM [inhibitor, full curve, poor fit] | 
O=C(CSc1nc(NS(=O)(=O)c2ccccc2)cc(=O)[nH]1)Nc1ccc(Cl)cc1 | inconclusive: 44.7 µM [inhibitor, partial curve] | 
COc1ccc(NC(=O)c2ccc3c(c2)c(C)c(C)n3Cc2ccc(F)cc2)c(OC)c1 |  | inactive: -21.4%
COc1nc(C)cc(C)c1S(=O)(=O)c1ccccc1 |  | inactive: -15.3%
Cn1cc(C2c3ccccc3C(=O)N2CC(=O)NCC(N)=O)c2ccccc21 (stereo not drawn) |  | inactive: 6.97%
Cc1ccc(S(=O)(=O)/C(C#N)=C/c2c(N3CCOCC3)nc3c(C)cccn3c2=O)cc1 | inconclusive: 112 µM [inhibitor, partial curve, poor fit] | 
CCc1nc(OCCN(CC)CC)c2oc3ccccc3c2n1 | inconclusive: 0.316 µM [inhibitor, full curve, poor fit] | 
Cc1cccnc1NC(=O)C(C)N1C(=O)c2ccccc2C1=O (stereo not drawn) | inconclusive: 44.7 µM [inhibitor, partial curve, poor fit] | 
CCc1ccc(OCC(=O)N(Cc2ccco2)Cc2ccco2)cc1 |  | inactive: -10.7%
Cc1ccc(C(=O)C(NC(=O)c2ccco2)Nc2ccc(C(=O)O)cc2)cc1 (stereo not drawn) | inconclusive: 44.7 µM [inhibitor, partial curve, poor fit] | 
CC(C)CCNCc1ccncc1 | inconclusive: 39.8 µM [inhibitor, single point] | 
COc1ccc(-c2ncn(CCc3ccccc3OC)c2CC(C)C)cc1 |  | inconclusive: -37.4% [inhibitor]
Cc1cccc(NC(=S)NCc2ccccc2Cl)c1C |  | inactive: 16.4%
CCOC(=O)c1sc(N)c(C#N)c1CSCc1ccccc1 | inconclusive: 39.8 µM [inhibitor, partial curve, poor fit] | 
COc1ccc(CNC(=O)COC(=O)c2cc(S(=O)(=O)N3CCOCC3)ccc2O)cc1OC | inconclusive: 0.316 µM [inhibitor, full curve, poor fit] | 
COC(=O)c1cccc(-n2c(C)cc(C=O)c2C)c1C | inconclusive: 50.1 µM [inhibitor, partial curve, poor fit] | 
N#C/C(=C\c1ccc(Sc2nc3ccccc3[nH]2)o1)c1ccccc1 | inconclusive: 158 µM [inhibitor, partial curve, poor fit] | 
CC(C)(C#N)/[N+]([O-])=C/c1ccc(Cl)cc1Cl | inconclusive: 25.1 µM [inhibitor, partial curve, poor fit] | 
CCOC(=O)c1c(C)oc2c1c(CN1CCN(C(=O)OCC)CC1)c(O)c1ccccc12 | inconclusive: 4.47 µM [inhibitor, full curve, poor fit] | 
O=C(OCC(=O)N1CCOCC1)c1ccc[nH]c1=O | inconclusive: 17.8 µM [inhibitor, full curve, poor fit] | 
COc1ccc(CC(C(=O)Nc2ccc(F)cc2)c2nn[nH]n2)cc1 (stereo not drawn) | inconclusive: 39.8 µM [inhibitor, partial curve, poor fit] | 
Cc1noc(C(C)C)c1C(=O)Nc1ccc(SC(F)F)cc1 | inconclusive: 79.4 µM [inhibitor, partial curve, poor fit] | 
CCCN1CCN(CCCNC(=O)c2ccc3c(c2)sc2nc(-c4ccc(C)cc4)cn23)CC1 | inconclusive: 56.2 µM [inhibitor, partial curve, poor fit] | 

Compound | Potency | activity change, negative = inhibition
O=C(c1ccccc1F)N1CCC(c2nn(-c3ccc(F)cc3)c(=O)[nH]2)CC1 | inconclusive: 35.5 µM [inhibitor, single point] | 
O=C(N/N=C/c1cn[nH]c1-c1ccccc1)c1ccco1 |  | inactive: 11%
O=C(Nc1ccc(S(=O)(=O)N2CCCCCC2)cc1)c1[nH]ncc1[N+](=O)[O-] |  | inactive: 0%
Cc1[nH]c2ccccc2c1Cc1n[nH]c(=S)n1C |  | inactive: 16.6%
COc1ccc2c(c1)SCC(=O)N2C | inconclusive: 0.0891 µM [inhibitor, full curve, poor fit] | 
C=CCNC(=S)NC1CC1 | inconclusive: 8.91 µM [inhibitor, full curve] | 
Oc1ccc(-c2nc(C3CC3)nc3c2CN(CC2CCCCC2)CC3)cc1 |  | inactive: -4.31%
COc1ccccc1N1CCN(Cc2cc(=O)oc3cc(C)cc(C)c23)CC1 | inconclusive: 112 µM [inhibitor, single point] | 
COc1cc(C2C(C(=O)c3ccc(C)o3)=C(O)C(=O)N2c2cc(C)on2)ccc1OCc1ccccc1 (stereo not drawn) | inconclusive: 39.8 µM [inhibitor, partial curve, poor fit] | 
Nc1nc(SCC(=O)NCCCO)nc2sc3c(c12)CCC3 |  | inactive: 21%
Cc1nn(-c2nc3ccccc3s2)c(N)c1-c1ccccc1 |  | inactive: -2.38% [at 57.4 µM]
CCOC(=O)C1=C(C)Nc2ccc(C)cc2S1 | inconclusive: 28.2 µM [inhibitor, single point] | 
CN1CCO/C1=C(\C(Cl)=C(Cl)Cl)[N+](=O)[O-] | inconclusive: 0.355 µM [inhibitor, full curve] | 
Cc1ccccc1C(=O)NC1CCCCN(C)C1=O (stereo not drawn) |  | inactive: -3.03%
CCCS(=O)(=O)N(C)C1CCc2nn(CC3CC3)c(=O)n2CC1 (stereo not drawn) |  | inactive: 58.7%
COc1cc(C)ccc1OCCCOc1cc(C)ccc1Cl | inconclusive: 2.82 µM [inhibitor, full curve, poor fit] | 
O=C(CBr)c1ccc([N+](=O)[O-])c(CS(=O)(=O)c2ccc(Cl)cc2)c1 | inconclusive: 31.6 µM [inhibitor, partial curve, poor fit] | 
CCn1c(/C=C/c2ccccc2[N+](=O)[O-])nc2ccccc2c1=O |  | inactive: 17.2%
O=C(NC1CCCC1)C(c1ccccn1)N(C(=O)c1csnn1)C1CCCCC1 (stereo not drawn) | inconclusive: 56.2 µM [inhibitor, partial curve, poor fit] | 
Oc1ccc(CN2CCc3ccccc3C2)c2cccnc12 | inconclusive: 31.6 µM [inhibitor, partial curve, poor fit] | 
Cc1nc(SCCC(C)C)c([N+](=O)[O-])[nH]1 | inconclusive: 39.8 µM [inhibitor, single point] | 
O=C(O)CC(NC(=O)c1ccc(-c2ccc(F)cc2)s1)C(=O)O (stereo not drawn) |  | inactive: 7.17%
COCCOC(=O)C(CC(=O)O)NCc1ccco1 (stereo not drawn) | inconclusive: 0.794 µM [inhibitor, partial curve, poor fit] | 

Compound | Potency | activity change, negative = inhibition
O=C1CN(C(=O)COc2ccc([N+](=O)[O-])cc2Cl)c2ccccc2N1 |  | inactive: -13.1%
Cc1ccc(S(=O)(=O)N(CC(O)CN2C(=O)NC(C)(C)C2=O)c2cccc([N+](=O)[O-])c2)cc1 (stereo not drawn) | inconclusive: 50.1 µM [inhibitor, partial curve, poor fit] | 
O=C(CSc1nnc2n(-c3ccccc3)c(=O)c3ccccc3n12)Nc1ccccc1C(F)(F)F |  | inactive: 1.94%
COc1cccc(CNC(=O)C(C)n2ccc3cc(S(=O)(=O)N4CCCCCC4)ccc32)c1 (stereo not drawn) | inactive | 
CCn1c(CCCOc2ccc(Cl)cc2C)n[nH]c1=S | active: 17.8 µM | 
COCCNc1nc(-c2ccc(NC(C)=O)cc2)cs1 | inconclusive: 31.6 µM [inhibitor, partial curve] | 
Cc1ccc(C(O)CNC(=O)C2CC=CCC2)cc1 (stereo not drawn) | inconclusive: 158 µM [inhibitor, single point] | 
COc1ccccc1C(NC(=O)C1CCN(CCc2ccc(Br)cc2)CC1)c1ccccn1 (stereo not drawn) | active: 39.8 µM | 
COC(=O)c1cc(OC(=O)CCS(=O)(=O)c2ccc(C)cc2)cc(C(=O)OC)c1 |  | inactive: -14.2%
Cc1cccc2c1-c1sc(C(=O)NCCc3ccc(Cl)cc3)cc1CO2 | inconclusive: 100 µM [inhibitor, partial curve, poor fit] | 
O=[N+]([O-])c1ccc(NN=C2CCCCC2)c([N+](=O)[O-])c1 | inconclusive: 63.1 µM [inhibitor, partial curve, poor fit] | 
CN(C)c1ccc(C(=O)NCC2CCCO2)cc1 (stereo not drawn) |  | inactive: -2.65%
COc1ccc2oc(C(=O)OCC(=O)NC3CCS(=O)(=O)C3)c(C)c2c1 (stereo not drawn) | inconclusive: 79.4 µM [inhibitor, partial curve, poor fit] | 
COc1ccccc1C1C2=C(N=c3s/c(=C/c4cccc(OCC(=O)O)c4)c(=O)n31)c1ccccc1CC2 (stereo not drawn) | inconclusive: 39.8 µM [inhibitor, partial curve, poor fit] | 
COCCN(C(=O)COC(=O)C(C)(C)Oc1ccc(Cl)cc1)c1c(N)n(Cc2ccccc2)c(=O)[nH]c1=O | inconclusive: 126 µM [inhibitor, single point] | 
CCOC(=O)C(C(C)C)C(N)Cc1ccc(F)cc1 (stereo not drawn) | inconclusive: 44.7 µM [inhibitor, partial curve, poor fit] | 
Cc1ccc(-n2c(-c3ccccc3)cc(C=Nc3ccc(C)c(C)c3)c2-c2ccccc2)cc1 | active: 20 µM | 
COc1cc(-c2nc(-c3ccccc3)c(-c3cccs3)[nH]2)cc(OC)c1O | inconclusive: 50.1 µM [inhibitor, partial curve, poor fit] | 
CCc1nc2ccc(C(=O)Nc3ccc(OC)c(OC)c3)cn2c1N(C)CCC(C)C | inconclusive: 50.1 µM [inhibitor, partial curve, poor fit] | 
COc1ccc(-c2ccc3c(c2)S(=O)(=O)c2cccc(C(=O)NC[C@@H]4CCCO4)c2C3=O)cc1OC | inconclusive: 5.01 µM [inhibitor, full curve, poor fit] | 
CC1CCC(N2CC(=O)N(C3CCCC3)C(c3ccc(Cl)cc3)C2=O)CC1 (stereo not drawn) |  | inactive: -23.7%
COc1cc(/C=C2\N=C(C)OC2=O)cc(Cl)c1OC(C)=O | inconclusive: 35.5 µM [inhibitor, partial curve, poor fit] | 

Look-ups from the list:
Potency, Cc1ccc(C(O)CNC(=O)C2CC=CCC2)cc1 (stereo not drawn) reads inconclusive: 158 µM [inhibitor, single point]
Potency, COc1cc(-c2nc(-c3ccccc3)c(-c3cccs3)[nH]2)cc(OC)c1O reads inconclusive: 50.1 µM [inhibitor, partial curve, poor fit]
activity change, negative = inhibition, CN(C)c1ccc(C(=O)NCC2CCCO2)cc1 (stereo not drawn) reads inactive: -2.65%
Potency, CCn1c(CCCOc2ccc(Cl)cc2C)n[nH]c1=S reads active: 17.8 µM
Potency, COc1ccc(-c2ccc3c(c2)S(=O)(=O)c2cccc(C(=O)NC[C@@H]4CCCO4)c2C3=O)cc1OC reads inconclusive: 5.01 µM [inhibitor, full curve, poor fit]
